No constants are given. Whether binding was seen depends on the method and setting. Binding seen in cells or lysates may run through a third protein. Some results given as binding are weak or reduced against the parent protein; the word gives no strength.
B1: LIN54 (protein, UniProt Q571G4 1-749)
chain: MEVVPAEVNSLLPDDIMDTAITLVDEDSIEAVIVSSPIPMETELEEIVNINSTGDSTATPISTEPITVYSNHTNQVAVNTTVSKADSNTTVKPAFPSGLQKLGAQTPVTISANQIILNKVSQTSDLKLGNQTLKPDGQKLILTTLGKSGSPIVLALPHSQLPQAQKVTAQAQPGDAKLPPQQIKVVTIGGRPEVKPVIGVSALTPGSQLINTTTQPSVLQTQQLKTVQIAKKPRTPTSGPVITKLIFAKPINSKAVTGQTTQASPPVVTGRVLSQSTPGTPSKTITISESGVIGSTLNSTTQTPNKIAISPLKSPNKTVKSAVQTITVGGMSTSQFKTIIPLATAPNVQQIQVPGSKFHYVRLVTATTASSSAQPVSQSPSVNTQPLQQAKPVVVNTTPVRMSVPFVQAQAVKQVVPKPINSTSQIVTTSQPQQRLIMPATPLPQIQPNLTNLPPGTVLAPAPGTGNVGYAVLPAQYVTQLQQSSYVSIASNSNFTGTSGIQTQARLPFNGIIPSESTSRPRKPCNCTKSLCLKLYCDCFANGEFCNNCNCTNCYNNLEHENERQKAIKACLDRNPEAFKPKIGKGKEGESDRRHSKGCNCKRSGCLKNYCECYEAKIMCSSICKCIGCKNFEESPERKTLMHLADAAEVRVQQQTAAKTKLSSQISDLLTRPTPALNSAGGKLPFTFVTKEVAEATCNCLLAQAEQADKKGKSKAAAERMILEEFGRCLMSVINSAGKAKSDPCAMHC
B2: LIN37 (protein, UniProt Q9D8N6 1-246)
chain: MFPVKVKVEKSEMEMAKARNQLDAVLQCLLEKSHMDRERLDEEAGKTPLDTHNKDCSIAATGKRPSARFPHQRRKKRREMDDGLAEGGPQRSNTYVIKLFDRSVDLAQFSENTPLYPICRAWMRNSPTVRERERSPGSPLPPLPEDGEGSEVINSKNRDVYKLPPPTAPGPLGDACRSRIPSPLQPETEGTPDDEPSEPEPSPSTLIYRNMQRWKRIRQRWKEASHRNQLRYSESMKILREMYDRQ
B3: p107, Q64701 1-1063 (protein)
chain: MFEDEPHAEGAAAVAAAREALQALCQELNLDEGSAAEALDDFTAIRGNYSLEGEVIHWLACSLYVACRKSIIPTVGKGVMEGNCVSLTRILRSAKLSLIQFFSKMKKWMDMSNLPQEFRERIERLERNFEVSTVIFKKFEPIFLDIFQNPYEEPPKLPRSRKQRRIPCSVKDLFNFCWTLFVYTKGNFRMIGDDLVNSYHLLLCCLDLIFANAIMCPNRRDLLNPSFKGLPSDFHAPDFKAAEEPPCIIAVLCDLHDGLLVEAKGIKEHYFKPYISKLFDKKILKGECLLDLSSFTDNSKAVNKEYEEYVLTVGDFDERIFLGADAEEEIGTPRKFTADTPFGKLTSQASVECNLQQHFEKKRSFAPSTPLTGRRYLQEKEAVTTPVASATQSVSRLQSIVAGLKSAPSEQLLNIFESCMRNPMGNIIKIVKGIGETFCQHYTQSTDKQPGSHIDFAVNRLKLAEILYYKILETIMVQETRRLHGMDMSVLLEQDIFHKSLMACCLEIVLFAYSSPRTFPWIIEVLDLQPFYFYKVIEVVIRSEEGLSRDMVKHLNSIEEQILESLAWTNNSALWEALHASANRVPSCEEVIFPNNFEIGNGGNVQGHLPMMPMSPIIHPRVKEVRTDSGSLRQDMQPLSPISVHERYSSPAAGSAKRRLFGDDPPKDTLMDKIMAEGTKLKIAPSSVTAESLSISPGQALLTMATTTVTGTTGRKVTVPLHGIANDAGEITLVPISMNPTQESTAESPVSLTAQSLIGTSPKQTHLTKAQDAHLTGVSKPKRTGSLALFYRKVYHLASVRLRDLCLKLDVSNELRRKIWTCFEFTLVHCPDLMKDRHLDQLLLCAFYIMAKVTKEERTFQEIMKSYRNQPQANSHVYRSVLLKSIPGGVVVYNGDCEMTDGDIEDATKTPNCSSEPVKEERGDLIKFYNTVYVGRVKSFALKYDLSNQDHIMDAPPLSPFPHIKQQPGSPRRISQQHSLYVSPHKNGAGLTPRSALLYKFNGSPSKSLKDINNMIRQGEQKTKKRVIAISGDADSPAKRLCQENDDVLLKRLQDVVSERANH

What was measured:
[1] = target: LIN9 (mouse (endogenous in E14 ESCs)) (UniProt Q8C735); assay: co-IP; nuclear extracts of mouse ESCs immunoprecipitated with LIN9 antibody (ab62329) overnight at 4°C, Protein-G Dynabeads, washed 5 times with TNN (120 mM NaCl, 0.5% NP40); nonspecific IgG as control; immunoblotting
[2] = target: T1, LIN9 (mouse (endogenous in E14 ESCs)), Q8C735; assay: as above; conditions: remark: other sources report otherwise
T1 chain: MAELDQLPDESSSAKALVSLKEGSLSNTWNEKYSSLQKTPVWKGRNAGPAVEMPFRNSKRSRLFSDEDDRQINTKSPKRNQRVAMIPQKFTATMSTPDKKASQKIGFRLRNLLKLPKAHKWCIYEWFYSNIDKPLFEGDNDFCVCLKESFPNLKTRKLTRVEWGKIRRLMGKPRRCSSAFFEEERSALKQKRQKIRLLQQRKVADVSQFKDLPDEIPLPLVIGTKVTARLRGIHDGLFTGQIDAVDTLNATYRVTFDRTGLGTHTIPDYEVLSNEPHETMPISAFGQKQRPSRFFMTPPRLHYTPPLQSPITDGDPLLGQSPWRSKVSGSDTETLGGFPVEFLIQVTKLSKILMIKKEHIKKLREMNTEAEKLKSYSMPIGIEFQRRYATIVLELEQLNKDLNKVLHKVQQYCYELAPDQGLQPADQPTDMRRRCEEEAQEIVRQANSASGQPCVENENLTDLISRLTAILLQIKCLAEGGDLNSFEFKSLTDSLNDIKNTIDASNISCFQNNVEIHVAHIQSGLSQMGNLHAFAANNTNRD

Row | Binder | binding [1] | binding [2]
1 | B1 | binds | 
2 | B2 | binds | 
3 | B3 |  | no binding
